According to the supplement of paper PMC10849652:
This is one part of the list.

The chains behind the UniProt entries cited, without tags or fusion partners. Where a name states a change or a piece, a line headed by the entry shows the natural chain unless it says otherwise.
UniProt O95070: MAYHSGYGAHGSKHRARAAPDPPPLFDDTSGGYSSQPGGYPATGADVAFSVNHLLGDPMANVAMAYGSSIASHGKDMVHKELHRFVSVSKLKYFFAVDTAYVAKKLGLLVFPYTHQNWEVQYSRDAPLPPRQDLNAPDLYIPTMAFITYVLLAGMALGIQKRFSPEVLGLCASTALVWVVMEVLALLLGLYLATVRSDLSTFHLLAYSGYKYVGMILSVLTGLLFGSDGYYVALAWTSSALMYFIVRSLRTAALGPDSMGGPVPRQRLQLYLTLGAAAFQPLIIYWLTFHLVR
UniProt Q7Z2W4: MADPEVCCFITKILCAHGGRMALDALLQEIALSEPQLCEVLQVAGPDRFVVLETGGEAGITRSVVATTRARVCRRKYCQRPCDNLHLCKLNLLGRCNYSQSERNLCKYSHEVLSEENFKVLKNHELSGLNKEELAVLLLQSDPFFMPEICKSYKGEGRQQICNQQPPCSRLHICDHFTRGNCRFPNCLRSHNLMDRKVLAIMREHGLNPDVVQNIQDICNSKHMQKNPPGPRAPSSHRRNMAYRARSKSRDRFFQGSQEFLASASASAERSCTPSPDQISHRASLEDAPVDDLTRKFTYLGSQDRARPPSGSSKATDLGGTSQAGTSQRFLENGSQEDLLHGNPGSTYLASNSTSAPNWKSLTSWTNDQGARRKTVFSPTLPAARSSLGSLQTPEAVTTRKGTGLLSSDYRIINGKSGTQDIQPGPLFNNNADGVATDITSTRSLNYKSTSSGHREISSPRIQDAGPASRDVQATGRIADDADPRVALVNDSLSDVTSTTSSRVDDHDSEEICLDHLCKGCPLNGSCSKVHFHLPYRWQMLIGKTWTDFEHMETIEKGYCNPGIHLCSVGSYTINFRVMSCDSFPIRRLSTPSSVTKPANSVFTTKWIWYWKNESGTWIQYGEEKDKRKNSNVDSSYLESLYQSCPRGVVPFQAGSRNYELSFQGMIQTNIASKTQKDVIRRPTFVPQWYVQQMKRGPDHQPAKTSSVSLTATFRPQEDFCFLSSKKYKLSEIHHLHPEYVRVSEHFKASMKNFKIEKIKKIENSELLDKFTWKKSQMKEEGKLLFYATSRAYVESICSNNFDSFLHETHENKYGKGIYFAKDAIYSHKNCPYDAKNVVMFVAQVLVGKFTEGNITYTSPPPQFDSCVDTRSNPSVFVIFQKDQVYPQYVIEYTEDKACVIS
UniProt Q7Z3T8: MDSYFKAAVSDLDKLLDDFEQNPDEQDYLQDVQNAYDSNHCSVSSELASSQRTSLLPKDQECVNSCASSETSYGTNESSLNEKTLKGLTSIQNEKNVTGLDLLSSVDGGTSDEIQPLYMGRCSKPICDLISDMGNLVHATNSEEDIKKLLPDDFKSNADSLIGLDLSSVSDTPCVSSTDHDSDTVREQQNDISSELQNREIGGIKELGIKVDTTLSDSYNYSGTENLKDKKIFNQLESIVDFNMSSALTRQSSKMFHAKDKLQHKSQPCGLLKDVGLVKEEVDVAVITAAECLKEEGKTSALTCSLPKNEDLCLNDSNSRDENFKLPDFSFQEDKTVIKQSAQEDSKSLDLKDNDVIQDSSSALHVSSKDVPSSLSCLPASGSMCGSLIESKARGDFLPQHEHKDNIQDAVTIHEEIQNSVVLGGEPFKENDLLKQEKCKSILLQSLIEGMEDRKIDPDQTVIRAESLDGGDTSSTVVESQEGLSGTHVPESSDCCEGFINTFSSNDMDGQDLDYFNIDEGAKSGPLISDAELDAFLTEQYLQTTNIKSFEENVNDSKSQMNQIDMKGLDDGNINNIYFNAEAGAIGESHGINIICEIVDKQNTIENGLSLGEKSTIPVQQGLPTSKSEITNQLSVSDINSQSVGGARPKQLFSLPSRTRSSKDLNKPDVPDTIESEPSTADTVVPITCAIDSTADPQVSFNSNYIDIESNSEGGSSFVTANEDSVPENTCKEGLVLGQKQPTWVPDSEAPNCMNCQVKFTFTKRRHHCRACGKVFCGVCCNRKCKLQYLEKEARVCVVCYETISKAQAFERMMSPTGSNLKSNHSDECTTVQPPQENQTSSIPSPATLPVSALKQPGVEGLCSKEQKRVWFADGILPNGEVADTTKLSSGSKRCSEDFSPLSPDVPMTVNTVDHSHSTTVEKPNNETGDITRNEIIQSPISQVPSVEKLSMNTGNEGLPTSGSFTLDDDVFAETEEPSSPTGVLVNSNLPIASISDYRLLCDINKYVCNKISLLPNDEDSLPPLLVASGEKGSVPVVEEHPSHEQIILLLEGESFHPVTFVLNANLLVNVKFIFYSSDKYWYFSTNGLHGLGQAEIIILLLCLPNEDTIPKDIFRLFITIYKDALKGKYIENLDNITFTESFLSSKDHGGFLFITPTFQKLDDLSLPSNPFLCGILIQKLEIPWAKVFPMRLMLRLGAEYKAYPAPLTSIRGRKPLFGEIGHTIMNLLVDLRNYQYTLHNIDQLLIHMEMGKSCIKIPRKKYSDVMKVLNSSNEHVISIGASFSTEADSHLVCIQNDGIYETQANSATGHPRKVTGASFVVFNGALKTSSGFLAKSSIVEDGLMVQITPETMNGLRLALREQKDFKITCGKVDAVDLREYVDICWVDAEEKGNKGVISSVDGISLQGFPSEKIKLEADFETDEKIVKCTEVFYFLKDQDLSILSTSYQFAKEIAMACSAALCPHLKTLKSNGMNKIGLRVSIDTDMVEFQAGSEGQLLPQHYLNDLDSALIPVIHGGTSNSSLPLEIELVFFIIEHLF
UniProt Q04917: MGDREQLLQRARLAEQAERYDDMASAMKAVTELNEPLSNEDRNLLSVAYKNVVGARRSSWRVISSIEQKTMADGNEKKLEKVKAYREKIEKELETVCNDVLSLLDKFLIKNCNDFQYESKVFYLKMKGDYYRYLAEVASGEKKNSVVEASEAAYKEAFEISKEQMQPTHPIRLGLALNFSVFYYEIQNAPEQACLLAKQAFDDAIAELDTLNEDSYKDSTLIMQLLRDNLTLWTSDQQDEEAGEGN
UniProt A8MPS7: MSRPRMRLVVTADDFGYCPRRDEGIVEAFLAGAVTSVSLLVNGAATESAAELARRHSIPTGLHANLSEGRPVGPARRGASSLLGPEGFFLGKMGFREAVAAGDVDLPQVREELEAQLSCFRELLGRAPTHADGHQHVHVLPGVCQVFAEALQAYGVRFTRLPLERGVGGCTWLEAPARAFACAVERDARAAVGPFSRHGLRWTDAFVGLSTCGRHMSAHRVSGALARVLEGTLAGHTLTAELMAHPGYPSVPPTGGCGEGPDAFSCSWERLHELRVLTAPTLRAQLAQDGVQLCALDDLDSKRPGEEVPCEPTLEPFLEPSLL
UniProt O60315: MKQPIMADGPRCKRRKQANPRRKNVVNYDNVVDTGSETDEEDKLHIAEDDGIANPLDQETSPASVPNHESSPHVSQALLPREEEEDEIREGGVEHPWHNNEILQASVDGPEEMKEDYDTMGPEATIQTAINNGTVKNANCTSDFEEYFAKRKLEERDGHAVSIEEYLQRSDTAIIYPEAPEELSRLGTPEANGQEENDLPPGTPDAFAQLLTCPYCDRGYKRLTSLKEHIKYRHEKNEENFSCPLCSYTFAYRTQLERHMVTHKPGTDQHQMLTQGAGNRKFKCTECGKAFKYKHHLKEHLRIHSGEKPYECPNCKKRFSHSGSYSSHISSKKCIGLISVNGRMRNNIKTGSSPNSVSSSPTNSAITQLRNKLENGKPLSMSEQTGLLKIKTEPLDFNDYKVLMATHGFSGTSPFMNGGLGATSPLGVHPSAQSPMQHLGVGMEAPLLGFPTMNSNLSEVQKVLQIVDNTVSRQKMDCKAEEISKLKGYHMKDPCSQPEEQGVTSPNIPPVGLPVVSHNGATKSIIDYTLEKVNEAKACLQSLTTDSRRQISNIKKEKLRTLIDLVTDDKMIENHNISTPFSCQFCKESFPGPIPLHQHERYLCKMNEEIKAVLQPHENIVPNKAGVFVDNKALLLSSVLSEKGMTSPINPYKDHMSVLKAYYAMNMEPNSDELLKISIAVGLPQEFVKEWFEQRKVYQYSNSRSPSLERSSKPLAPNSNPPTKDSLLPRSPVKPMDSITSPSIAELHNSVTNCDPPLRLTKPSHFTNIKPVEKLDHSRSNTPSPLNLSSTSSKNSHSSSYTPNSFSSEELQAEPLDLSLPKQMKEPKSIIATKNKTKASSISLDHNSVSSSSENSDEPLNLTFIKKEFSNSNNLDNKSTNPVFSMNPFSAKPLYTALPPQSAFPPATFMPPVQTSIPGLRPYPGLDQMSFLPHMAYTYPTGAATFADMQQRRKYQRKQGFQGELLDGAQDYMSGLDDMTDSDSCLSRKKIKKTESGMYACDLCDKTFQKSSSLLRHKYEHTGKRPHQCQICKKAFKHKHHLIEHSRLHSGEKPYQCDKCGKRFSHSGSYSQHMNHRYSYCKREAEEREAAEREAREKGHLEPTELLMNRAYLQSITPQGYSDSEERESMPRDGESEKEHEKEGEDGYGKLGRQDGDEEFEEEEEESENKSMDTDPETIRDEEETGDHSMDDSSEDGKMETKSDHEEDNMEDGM
UniProt Q9H8U3: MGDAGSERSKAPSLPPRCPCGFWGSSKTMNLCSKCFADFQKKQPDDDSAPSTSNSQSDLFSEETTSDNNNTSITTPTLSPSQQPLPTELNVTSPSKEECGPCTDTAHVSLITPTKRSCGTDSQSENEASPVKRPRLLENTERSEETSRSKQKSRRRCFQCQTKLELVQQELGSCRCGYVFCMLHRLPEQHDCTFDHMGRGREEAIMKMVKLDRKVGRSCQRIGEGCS
UniProt P62258: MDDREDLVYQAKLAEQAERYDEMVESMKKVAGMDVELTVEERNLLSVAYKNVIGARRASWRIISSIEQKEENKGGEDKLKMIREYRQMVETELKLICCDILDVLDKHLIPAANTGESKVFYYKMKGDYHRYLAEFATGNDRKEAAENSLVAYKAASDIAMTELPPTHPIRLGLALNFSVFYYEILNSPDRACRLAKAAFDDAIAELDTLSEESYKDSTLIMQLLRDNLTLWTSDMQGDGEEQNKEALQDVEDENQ
UniProt Q9ULM3: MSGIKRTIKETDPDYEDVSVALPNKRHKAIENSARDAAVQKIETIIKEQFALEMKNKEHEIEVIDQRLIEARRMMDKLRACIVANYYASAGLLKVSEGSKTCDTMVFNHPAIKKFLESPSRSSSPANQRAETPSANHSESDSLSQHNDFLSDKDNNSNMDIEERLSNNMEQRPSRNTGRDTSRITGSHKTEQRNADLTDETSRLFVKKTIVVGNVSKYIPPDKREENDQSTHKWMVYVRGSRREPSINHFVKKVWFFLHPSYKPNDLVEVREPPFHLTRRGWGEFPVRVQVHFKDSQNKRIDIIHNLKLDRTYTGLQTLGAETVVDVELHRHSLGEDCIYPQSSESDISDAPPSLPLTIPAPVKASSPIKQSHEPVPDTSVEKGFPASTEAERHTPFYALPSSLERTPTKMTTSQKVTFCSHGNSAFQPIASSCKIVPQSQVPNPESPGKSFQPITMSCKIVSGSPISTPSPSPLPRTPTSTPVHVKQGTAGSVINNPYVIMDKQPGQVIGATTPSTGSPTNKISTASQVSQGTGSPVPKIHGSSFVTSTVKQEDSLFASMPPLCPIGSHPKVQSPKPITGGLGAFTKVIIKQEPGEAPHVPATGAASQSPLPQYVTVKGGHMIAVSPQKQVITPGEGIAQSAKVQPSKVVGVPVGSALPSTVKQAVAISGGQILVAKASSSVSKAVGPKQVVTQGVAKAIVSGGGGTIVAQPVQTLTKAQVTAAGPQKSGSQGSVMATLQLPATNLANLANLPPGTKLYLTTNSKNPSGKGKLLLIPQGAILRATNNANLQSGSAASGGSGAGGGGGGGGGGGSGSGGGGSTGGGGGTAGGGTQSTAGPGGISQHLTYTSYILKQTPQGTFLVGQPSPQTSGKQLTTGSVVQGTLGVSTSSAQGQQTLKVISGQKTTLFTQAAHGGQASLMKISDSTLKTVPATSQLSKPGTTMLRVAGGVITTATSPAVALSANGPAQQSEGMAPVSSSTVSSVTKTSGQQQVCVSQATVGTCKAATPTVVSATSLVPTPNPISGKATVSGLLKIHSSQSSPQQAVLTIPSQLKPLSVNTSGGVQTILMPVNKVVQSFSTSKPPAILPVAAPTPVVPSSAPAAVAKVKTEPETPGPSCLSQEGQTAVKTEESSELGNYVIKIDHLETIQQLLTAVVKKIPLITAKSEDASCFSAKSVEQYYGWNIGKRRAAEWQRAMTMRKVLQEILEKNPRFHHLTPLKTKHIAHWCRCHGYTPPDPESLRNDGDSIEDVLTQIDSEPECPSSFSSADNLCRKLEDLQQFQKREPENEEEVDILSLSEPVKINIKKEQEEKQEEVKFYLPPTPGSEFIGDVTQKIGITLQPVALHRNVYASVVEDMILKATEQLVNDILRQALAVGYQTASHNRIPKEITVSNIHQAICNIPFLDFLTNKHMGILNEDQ

Legend:
Experiment in all cases: log2 fold change, soluble protein after heating vs DMSO (PISA); higher = thermal stabilisation; K562 lysate, 10 uM; active = over 0.2 and 3.5 SD of the protein, either way, in both replicates (recomputed)
vemurafenib = compound: CCCS(=O)(=O)Nc1ccc(F)c(C(=O)c2c[nH]c3ncc(-c4ccc(Cl)cc4)cc23)c1F [vemurafenib]
Summary of the method: (§1)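 Soluble protein was defined as the supernatant remaining after 21,000xg for 90 min, following pooling of heated aliquots and adjustment to 0.5% NP-40 at 4°C. Before that, crude K562 extract at 1 mg/mL protein in PBS pH 7.4 with 1 mM MgCl2 was treated with 10 μM compound for 30 min and heated for 3 min across 48°C-58°C. Quantification used TMTpro 16plex LC-MS/MS with channel sums equalised, and values are log-two fold changes in thermal stability relative to solvent controls from duplicates.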

[1] = compound: CCCS(=O)(=O)Nc1ccc(F)c(C(=O)c2c[nH]c3ncc(Cl)cc23)c1F
Summary of the method: as §1

barasertib = compound: CCN(CCCOc1ccc2c(Nc3cc(CC(=O)Nc4cccc(F)c4)[nH]n3)ncnc2c1)CCOP(=O)(O)O [barasertib]
Summary of the method: as §1

[2] = compound: CC[C@@H]1C(=O)N(C)c2cnc(Nc3ccc(C(=O)NC4CCN(C)CC4)cc3OC)nc2N1C1CCCC1
Summary of the method: as §1

volasertib = compound: CC[C@@H]1C(=O)N(C)c2cnc(Nc3ccc(C(=O)N[C@H]4CC[C@H](N5CCN(CC6CC6)CC5)CC4)cc3OC)nc2N1C(C)C [volasertib]
Summary of the method: as §1

[3] = compound: CCn1c(C(=O)N(C2CC2)C2CC2)cc2c3c(ncn3C)c(Nc3cc(C)n(C)n3)nc21
Summary of the method: as §1

[4] = compound: CCn1cc(-c2ccnc3[nH]c(-c4cccc(CN(C)C)c4)cc23)c(-c2ccc(NC(=O)N(C)C)cc2)n1
Summary of the method: as §1

[5] = compound: CN1CCC(CNc2ccc3ncc(-c4cccc(OC(F)(F)F)c4)n3n2)CC1
Summary of the method: as §1

saracatinib = compound: CN1CCN(CCOc2cc(OC3CCOCC3)c3c(Nc4c(Cl)ccc5c4OCO5)ncnc3c2)CC1 [saracatinib]
Summary of the method: as §1

sotrastaurin = compound: CN1CCN(c2nc(C3=C(c4c[nH]c5ccccc45)C(=O)NC3=O)c3ccccc3n2)CC1 [sotrastaurin]
Summary of the method: as §1

alvocidib = compound: CN1CC[C@H](c2c(O)cc(O)c3c(=O)cc(-c4ccccc4Cl)oc23)[C@H](O)C1 [alvocidib]
Summary of the method: as §1

Tubastatin A = compound: CN1CCc2c(c3ccccc3n2Cc2ccc(C(=O)NO)cc2)C1 [Tubastatin A]
Summary of the method: as §1

[6] = compound: CNC(=O)C1=CC=CC=C1NC2=NC(=NC=C2Cl)NC3=C(C=C(C=C3)N4CCOCC4)OC
Summary of the method: as §1

defactinib = compound: CNC(=O)c1ccc(Nc2ncc(C(F)(F)F)c(NCc3nccnc3N(C)S(C)(=O)=O)n2)cc1 [defactinib]
Summary of the method: as §1

[7] = compound: CNc1nc(-c2ccc3c(N)n[nH]c3c2)cc(N2C[C@@H](C(=O)NC3CCCCC3)CC[C@H]2C)n1
Summary of the method: as §1

encorafenib = compound: COC(=O)N[C@@H](C)CNc1nccc(-c2cn(C(C)C)nc2-c2cc(Cl)cc(NS(C)(=O)=O)c2F)n1 [encorafenib]
Summary of the method: as §1

[8] = compound: COC(=O)[C@H](CCSC)NC(=O)C1=C(C=C(C=C1)NC[C@H](CS)N)C2=CC=CC=C2
Summary of the method: as §1

alisertib = compound: COc1cc(Nc2ncc3c(n2)-c2ccc(Cl)cc2C(c2c(F)cccc2OC)=NC3)ccc1C(=O)O [alisertib]
Summary of the method: as §1

[9] = compound: COc1cc2nc(-c3cc(F)ccc3O)nc(N[C@@H]3CNC[C@H]3C(C)(C)O)c2cc1OC
Summary of the method: as §1

gefitinib = compound: COc1cc2ncnc(Nc3ccc(F)c(Cl)c3)c2cc1OCCCN1CCOCC1 [gefitinib]
Summary of the method: as §1

Target | log2 fold change (vemurafenib) | log2 fold change [1] | log2 fold change (barasertib) | log2 fold change [2] | log2 fold change (volasertib) | log2 fold change [3] | log2 fold change [4] | log2 fold change [5] | log2 fold change (saracatinib) | log2 fold change (sotrastaurin) | log2 fold change (alvocidib) | log2 fold change (Tubastatin A) | log2 fold change [6] | log2 fold change (defactinib) | log2 fold change [7] | log2 fold change (encorafenib) | log2 fold change [8] | log2 fold change (alisertib) | log2 fold change [9] | log2 fold change (gefitinib)
ZC3HC1 (UniProt Q86WB0) | inactive: -0.006 | inactive: 0.027 | inactive: -0.029 | inactive: -0.036 | inactive: 0.015 | inactive: 0.008 | active: 0.253 | inactive: -0.075 | inactive: -0.03 | inactive: -0.022 | inactive: 0.049 | inactive: -0.101 | inactive: 0.018 | inactive: -0.015 | inactive: 0.034 | inactive: -0.001 | inactive: 0.078 | inactive: 0.022 | inactive: -0.013 | inactive: 0.024
YIF1A (UniProt O95070) | inactive: -0.041 | inactive: -0.097 | inactive: -0.061 | inactive: -0.008 | inactive: 0.05 | inactive: -0.031 | inactive: 0.075 | inactive: -0.156 | inactive: 0.024 | inactive: 0.012 | inactive: 0.038 | inactive: -0.096 | inactive: 0.032 | inactive: 0.025 | inactive: -0.031 | inactive: 0.034 | inactive: 0.024 |  | inactive: -0.02 | 
YTHDC2 (UniProt Q9H6S0) | inactive: 0.068 | inactive: 0.022 | inactive: 0.07 | inactive: -0.013 | inactive: -0.027 | inactive: 0.025 | inactive: 0.025 | inactive: 0.005 | inactive: 0.015 | inactive: 0.022 | inactive: 0.05 | inactive: -0.084 | inactive: 0.038 | inactive: 0.048 | inactive: -0.008 | inactive: 0.04 | inactive: 0.05 | inactive: -0.026 | inactive: -0.029 | inactive: -0.004
ZCCHC8 (UniProt Q6NZY4) | inactive: 0.016 | inactive: 0.005 | inactive: -0.045 | inactive: 0.077 | inactive: -0.011 | inactive: -0.002 | inactive: 0 | inactive: -0.008 | inactive: 0.014 | inactive: 0.008 | inactive: 0.012 | inactive: -0.047 | inactive: 0.017 | inactive: 0 | inactive: 0.024 | inactive: 0.009 | inactive: -0.037 | inactive: -0.017 | inactive: 0 | inactive: -0.022
YES1 (UniProt P07947) | inactive: 0.068 | inactive: 0.088 | inactive: 0.334 | inactive: -0.086 | inactive: -0.205 | inactive: -0.106 | inactive: -0.146 | inactive: -0.007 | inactive: 0.331 | inactive: -0.084 | inactive: -0.065 | inactive: 0.171 | inactive: -0.003 | inactive: -0.228 | inactive: -0.094 | inactive: -0.009 | inactive: -0.024 | inactive: 0.049 | inactive: 0.087 | inactive: -0.13
ZC3HAV1 (UniProt Q7Z2W4) | inactive: -0.014 | inactive: 0.021 | inactive: 0.005 | inactive: 0 | inactive: -0.035 | inactive: 0.009 | inactive: -0.062 | inactive: -0.01 | inactive: 0.001 | inactive: 0.004 | inactive: 0.005 | inactive: -0.078 | inactive: -0.001 | inactive: -0.003 | inactive: -0.019 | inactive: 0.022 | inactive: 0.009 | inactive: 0.032 | inactive: 0.011 | inactive: 0.008
ZCCHC9 (UniProt Q8N567) | inactive: -0.088 | inactive: 0.011 | inactive: -0.015 | inactive: 0.018 | inactive: 0.048 | inactive: 0.016 |  |  | inactive: 0.01 | inactive: -0.053 |  | inactive: -0.012 | inactive: 0.012 | inactive: -0.043 | inactive: 0.004 | inactive: 0.109 | inactive: -0.028 |  | inactive: -0.025 | 
ZFYVE16 (UniProt Q7Z3T8) | inactive: 0.005 | inactive: 0.035 | inactive: -0.002 | inactive: 0.025 | inactive: -0.02 | inactive: -0.005 | inactive: -0.052 | inactive: 0.011 | inactive: 0.036 | inactive: 0.011 | inactive: -0.028 | inactive: 0.003 | inactive: 0.01 | inactive: 0.022 | inactive: 0.005 | inactive: 0.045 | inactive: -0.045 | inactive: -0.013 | inactive: 0.004 | inactive: 0.003
YWHAH (UniProt Q04917) | inactive: -0.012 | inactive: -0.035 | inactive: -0.05 | inactive: -0.013 | inactive: 0.004 | inactive: -0.005 | inactive: 0.21 | inactive: -0.083 | inactive: -0.027 | inactive: 0.019 | inactive: 0.087 | inactive: 0.052 | inactive: -0.042 | inactive: -0.032 | inactive: -0.017 | inactive: -0.045 | inactive: 0 | inactive: -0.049 | inactive: 0.004 | inactive: 0.002
YDJC (UniProt A8MPS7) | inactive: -0.022 | inactive: 0.006 | inactive: 0.017 | inactive: 0.01 | inactive: -0.038 | inactive: -0.063 | inactive: 0.012 | inactive: 0.055 | inactive: 0.024 | inactive: 0.008 | inactive: -0.039 | inactive: 0.052 | inactive: 0.014 | inactive: -0.026 | inactive: 0.014 | inactive: -0.025 | inactive: -0.036 | inactive: 0.035 | inactive: 0.007 | inactive: -0.02
ZEB2 (UniProt O60315) | inactive: -0.077 | inactive: 0.15 | inactive: 0.277 | inactive: 0.013 | inactive: -0.027 | inactive: 0.055 |  |  | inactive: -0.052 | inactive: 0.018 |  | inactive: -0.065 | inactive: 0.003 | inactive: 0.076 | inactive: -0.024 | inactive: 0.057 | inactive: -0.043 | inactive: -0.375 | inactive: 0.043 | inactive: -0.151
ZBED8 (UniProt Q8IZ13) | inactive: -0.013 | inactive: 0.019 | inactive: 0.006 | inactive: 0.058 | inactive: -0.013 | inactive: -0.051 |  |  | inactive: -0.067 | inactive: -0.018 |  | inactive: 0.025 | inactive: 0.117 | inactive: 0.042 | inactive: -0.017 | inactive: -0.066 | inactive: 0.045 | inactive: -0.05 | inactive: 0.026 | inactive: -0.049
ZFAND3 (UniProt Q9H8U3) | inactive: -0.126 | inactive: -0.037 | inactive: 0.083 | inactive: 0.116 | inactive: -0.049 | inactive: 0.006 | inactive: 0.116 | inactive: -0.037 | inactive: -0.05 | inactive: 0.156 | inactive: -0.004 | inactive: 0.064 |  | inactive: 0.036 | inactive: 0.009 | inactive: 0.022 | inactive: -0.058 |  | inactive: -0.023 | 
XPO6 (UniProt Q96QU8) | inactive: 0.033 | inactive: 0.013 | inactive: 0.062 | inactive: -0.03 | inactive: -0.058 | inactive: -0.049 | inactive: 0.448 | inactive: 0.071 | inactive: -0.007 | inactive: 0 | inactive: -0.058 | inactive: -0.09 | inactive: -0.048 | inactive: -0.025 | inactive: -0.05 | inactive: -0.006 | inactive: 0.021 | inactive: 0.036 | inactive: 0.031 | inactive: 0.067
ZBTB3 (UniProt Q9H5J0) | inactive: 0.007 | inactive: 0.208 | inactive: -0.023 | inactive: 0.068 | inactive: -0.088 | inactive: -0.053 | inactive: 0.031 | inactive: 0.012 | inactive: 0.06 | inactive: 0.018 | inactive: -0.169 | inactive: 0.027 | inactive: -0.02 | inactive: -0.108 | inactive: -0.055 | inactive: 0.081 | inactive: -0.079 |  | inactive: -0.15 | 
YWHAE (UniProt P62258) | inactive: -0.002 | inactive: -0.006 | inactive: 0.009 | inactive: 0.033 | inactive: 0.024 | inactive: 0.017 | inactive: 0.01 | inactive: 0.035 | inactive: -0.015 | inactive: 0.022 | inactive: 0.004 | inactive: 0.03 | inactive: -0.023 | inactive: -0.012 | inactive: -0.019 | inactive: 0.001 | inactive: -0.026 | inactive: 0 | inactive: 0 | inactive: 0.008
YEATS2 (UniProt Q9ULM3) | inactive: 0.053 | inactive: 0.183 | inactive: 0.085 | inactive: 0.072 | inactive: -0.08 | inactive: -0.093 |  |  |  | inactive: 0.074 |  | inactive: -0.291 | inactive: -0.087 | inactive: -0.117 |  | inactive: 0.054 | inactive: 0.081 | inactive: -0.166 | inactive: 0.069 | inactive: 0.046

Part of the list above, reduced to log2 fold change (sotrastaurin):
Target | log2 fold change (sotrastaurin)
ZBTB3 (UniProt Q9H5J0) | inactive: 0.018
YWHAE (UniProt P62258) | inactive: 0.022
